Data: US6624317B1, “Taxoid conjugates as antimitotic and antitumor agents” (priority 2000, dated 2003)
Some of these results come from one statement about several compounds together. At least one structure is not confirmed: it was looked up by name or label, or the drawing left a doubt.

Test system: human tumor (HTCL) cell lines
Assay: standard cytotoxicity assays in human tumor cell lines (HTCL panel, overall)
Conditions: summary of Table 2
Procedure: Biological Assay. The in vitro cytotoxicity assay was carried out according to procedures described in Rubinstein et al. (P. Ferguson et al., Cancer Res. 1988, 48, 5956-5964). […] The human tumor cell line panel consisted of epiderimoid carcinoma of the nasopharynx (KB), lung carcinoma (A-549), ileocecal carcinoma (HCT-8), renal cancer (CAKI-1), breast cancer (MCF-7), melanoma cancer (SKMEL-2), and ovarian cancer (1A9). The drug resistant cell line panel consisted of three KB-derivatives, -7d, -CPT, and -VCR. The properties of these cells are described elsewhere (P. Ferguson et al., Cancer Res. 1988, 48, 5956-5964; D. Beidler et al., Cancer Res. 1996, 56, 345-353). […] They were a generous gift of Dr. P. Giannakakou (P. Giannakakou et al., J. Biol. Chem. 1997, 27, 17118-17125). Cells were cultured at 37° C. in RPMI-1640 with 100 ug/mL kanamycin and 10% (v/v) fetal bovine serum in a humidified atmosphere containing 5% CO2. Initial seeding densities varied among the cell lines to ensure a final absorbance of 1-2.5 A562 units. Drug exposure was for 3 days, and the ED50 value, the drug concentration that reduced the absorbance by 50%, was interpolated from dose-response data.
The newly synthesized taxoid-4′-O-demethyl epipodophyllotoxin conjugates were evaluated in house using standard cytotoxicity assays in human tumor (HTCL) and drug-resistant (DRCL) cell lines. […]

Structure (SMILES)	cytotoxicity in human tumor cell lines (in words)
C/C=C(\C)C(=O)N[C@@H](c1ccccc1)[C@@H](OC(=O)c1ccc(C=N[C@@H]2c3cc4c(cc3[C@@H](c3cc(OC)c(O)c(OC)c3)[C@H]3C(=O)OC[C@@H]32)OCO4)cc1)C(=O)O[C@H]1C[C@@]2(O)[C@@H](OC(=O)c3ccccc3)[C@@H]3[C@]4(OC(C)=O)CO[C@@H]4C[C@H](O)[C@@]3(C)C(=O)[C@H](OC(C)=O)C(=C1C)C2(C)C [Compound 14]	comparable or better activity than epipodophyllotoxin derivatives in most tumor cell lines
C/C=C(\C)C(=O)N[C@@H](c1ccccc1)[C@@H](OC(=O)c1ccc(C=Nc2ccc(N[C@@H]3c4cc5c(cc4[C@@H](c4cc(OC)c(O)c(OC)c4)[C@H]4C(=O)OC[C@@H]43)OCO5)cc2)cc1)C(=O)O[C@H]1C[C@@]2(O)[C@@H](OC(=O)c3ccccc3)[C@@H]3[C@]4(OC(C)=O)CO[C@@H]4C[C@H](O)[C@@]3(C)C(=O)[C@H](OC(C)=O)C(=C1C)C2(C)C [Compound 16]	comparable or better activity than epipodophyllotoxin derivatives in most tumor cell lines
